In patent publication US12453746B2, “Use of akkermansia muciniphila in preparation of pharmaceutical composition or health care product composition for improving metabolic syndrome” (GUANGZHOU ZHIYI BIOTECHNOLOGY CO., LTD., priority 2022, dated 2025):

Test system: metabolic syndrome rats
Test: Efficacy on metabolic syndrome in rats fed high-fat and high-sugar feed
Assay type: in vivo, SD rats
Text: One hundred SPF-grade male SD rats with weight of 160-180 g were subjected to adaptive feeding for 1 week, and 80 rats were randomly selected and fed with a high-fat and high-sugar feed for 8 weeks to perform metabolic syndrome modeling. The formula of the high-fat and high-sugar feed (in percentage by mass, wt %) were: 66.5% of basal feed, 2.5% of cholesterol, 20% of sucrose, 10% of lard, and 1% of cholate. The remaining 20 rats were fed with a basal feed.
After 8 weeks of feeding, 70 rats that were successfully modeled were selected according to the levels of body weight, body length, blood pressure, blood fat, fasting blood glucose, and the like, and randomly divided into 8 groups, with 10 rats in each group: model group, positive drug group (atorvastatin calcium, Pfizer Inc., 15 mg/kg), AKK bacteria AM06 live bacteria low dose group (10^6 CFU/rat), high dose group (10^10 CFU/rat), AM02 live bacteria group (10^10 CFU/rat), AM02 live bacteria (10^10 CFU/rat) in combination with atorvastatin calcium (15 mg/kg) group, and AKK bacteria AM06 and AM02 inactivated bacteria groups (10^10 cells/rat). Another 10 unmodeled rats were used as a normal control group.
Administration was performed after the grouping (DO): For the normal control group and the model group, 1 mL of normal saline was administered by intragastric administration once daily; for each of the treatment groups, the corresponding dose of the medicament was administered by intragastric administration once daily for consecutively 8 weeks. During the grouping and administration, the normal control group was fed with a basal feed, and the model group and each treatment group were fed with a high-fat and high-sugar feed.
After the last intragastric administration, the body length and the body weight of the rats were recorded. The Lee's index was calculated by the following formula: Lee's index=body weight (g)^1/3×1000×body length (cm)^−1; after the last intragastric administration, the rats were fasted but had free access to water for 12 h, the tail artery systolic blood pressure (SBP) was measured by a non-invasive blood pressure instrument, and the fasting blood glucose level (FBG) was detected by a glucometer; the rats were anesthetized with chloral hydrate, blood was collected from the abdominal aorta, the serum was separated, the serum insulin level (Fins) was measured by ELISA, and the insulin resistance index (HOMA-IR) was calculated as: HOMA-IR=FBG×Fins/22.5; serum triglyceride (TG), Total cholesterol (TC), low density lipoprotein (LDL-c), and high density lipoprotein (HDL-c) were measured by an automatic biochemical analyzer. All data were statistically analyzed using SPSS 25.0.p<0.05 was considered to have a statistical difference.

[1] = intragastric once daily 8 weeks, atorvastatin calcium 15 mg/kg

## CC(C)c1c(C(=O)Nc2ccccc2)c(-c2ccccc2)c(-c2ccc(F)cc2)n1CC[C@@H](O)C[C@@H](O)CC(=O)[O-].CC(C)c1c(C(=O)Nc2ccccc2)c(-c2ccccc2)c(-c2ccc(F)cc2)n1CC[C@@H](O)C[C@@H](O)CC(=O)[O-].[Ca+2] [Positive drug, atorvastatin calcium]
  HDL-c level compared with the model group: significantly increased
  LDL-c level compared with the model group: significantly decreased
  Lee's index compared with the model group: significant difference
  TC level compared with the model group: significantly decreased
  TG level compared with the model group: significantly decreased
Fasting blood glucose, 8 weeks, atorvastatin calcium 15 mg/kg
  FBG: 6.40 ± 1.08 mmol/L
Insulin resistance index = FBG×Fins/22.5, 8 weeks, atorvastatin calcium 15 mg/kg
  HOMA-IR: 3.02 ± 1.25
[1]
  Body mass: 460.15 ± 74.62 g
  Lee's index: 273.82 ± 78.48
Serum high density lipoprotein, 8 weeks, atorvastatin calcium 15 mg/kg
  HDL-c: 0.85 ± 0.25 mmol/L
Serum insulin, ELISA, 8 weeks, atorvastatin calcium 15 mg/kg
  Fins: 14.22 ± 3.10 mIU/L
Serum low density lipoprotein, 8 weeks, atorvastatin calcium 15 mg/kg
  LDL-c: 1.14 ± 0.31 mmol/L
Serum total cholesterol, 8 weeks, atorvastatin calcium 15 mg/kg
  TC: 1.44 ± 0.77 mmol/L
Serum triglyceride, 8 weeks, atorvastatin calcium 15 mg/kg
  TG: 0.73 ± 0.28 mmol/L
Tail artery systolic blood pressure, 8 weeks, atorvastatin calcium 15 mg/kg
  SBP: 123.42 ± 31.01 mmHg
